Our source for the binding values is paper doi:10.1101/2024.08.06.606911.

Protein sequences, listed by entry. Tags and fused reporters are not part of them.
UniProt Q96J02: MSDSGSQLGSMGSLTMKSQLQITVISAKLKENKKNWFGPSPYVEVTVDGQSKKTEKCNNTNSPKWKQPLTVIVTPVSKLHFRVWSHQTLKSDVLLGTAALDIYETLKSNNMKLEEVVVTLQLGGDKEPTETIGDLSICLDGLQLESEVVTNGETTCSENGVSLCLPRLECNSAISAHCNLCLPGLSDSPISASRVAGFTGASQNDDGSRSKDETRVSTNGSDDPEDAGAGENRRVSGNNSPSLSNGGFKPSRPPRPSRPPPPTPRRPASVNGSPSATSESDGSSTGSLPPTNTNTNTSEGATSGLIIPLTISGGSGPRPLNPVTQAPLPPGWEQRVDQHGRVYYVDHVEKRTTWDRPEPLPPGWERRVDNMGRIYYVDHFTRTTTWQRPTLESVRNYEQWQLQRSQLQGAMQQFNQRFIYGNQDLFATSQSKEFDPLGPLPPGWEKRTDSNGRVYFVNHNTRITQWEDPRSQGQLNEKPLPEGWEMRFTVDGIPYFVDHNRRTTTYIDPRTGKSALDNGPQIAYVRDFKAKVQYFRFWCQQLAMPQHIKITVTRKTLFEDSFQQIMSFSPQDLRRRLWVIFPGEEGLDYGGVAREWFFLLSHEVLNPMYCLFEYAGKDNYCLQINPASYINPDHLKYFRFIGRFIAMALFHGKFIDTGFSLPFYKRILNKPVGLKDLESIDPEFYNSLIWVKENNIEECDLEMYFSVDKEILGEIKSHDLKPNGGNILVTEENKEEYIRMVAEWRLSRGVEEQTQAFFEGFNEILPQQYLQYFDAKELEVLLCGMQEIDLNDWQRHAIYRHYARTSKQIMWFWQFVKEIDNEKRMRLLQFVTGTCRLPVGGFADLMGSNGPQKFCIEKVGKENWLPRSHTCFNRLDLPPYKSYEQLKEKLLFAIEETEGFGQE

No constants are given. Whether binding was seen depends on the method and setting. In cells and extracts the contact can be indirect. Some entries that bind do so weakly or less than the wild type.

For the assay, the target named is Flag-tagged ITCH (UniProt Q96J02). Briefly: co-IP.

B1: JUND, endogenous (protein, UniProt P17535 1-347)
chain: METPFYGDEALSGLGGGASGSGGSFASPGRLFPGAPPTAAAGSMMKKDALTLSLSEQVAAALKPAAAPPPTPLRADGAPSAAPPDGLLASPDLGLLKLASPELERLIIQSNGLVTTTPTSSQFLYPKVAASEEQEFAEGFVKALEDLHKQNQLGAGAAAAAAAAAAGGPSGTATGSAPPGELAPAAAAPEAPVYANLSSYAGGAGGAGGAATVAFAAEPVPFPPPPPPGALGPPRLAALKDEPQTVPDVPSFGESPPLSPIDMDTQERIKAERKRLRNRIAASKCRKRKLERISRLEEKVKTLKSQNTELASTASLLREQVAQLKQKVLSHVNSGCQLLPQHQVPAY
Regarding B1, the binding result is recorded as “binds”.
